± gives the standard deviation. The list shows a part of the results, in another mix than the full data. Many entries were measured with a wide error.
What was measured:
[1] = system: MILI (PIWIL2) piRISC loaded with piRNA #1 (26 nt); test: pre-steady-state target cleavage rate (min^-1); higher = faster piRNA-guided slicing of the target; settings: guide: piRNA #1 5'p-UGAGGUAGUAGGUUGUAUAGUAUCCA; auxiliary factor: 500 nM mouse GTSF1
Summary of the method: (§1)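 Active affinity-purified piRISC (1 nM) loaded with one synthetic guide was mixed with a transcribed, DNA-blocked target RNA library (0.1 nM), with or without 500 nM GTSF1 partner protein, in HEPES–potassium acetate buffer at 33 °C for 0–8 or 0–960 min. Uncleaved targets were sequenced, normalised to depth and to weakly complementary targets, and pooled across three trials, with k3 capped at 0.0001 min^-1. The pre-steady-state cleavage rate was determined with a burst-and-steady-state fit.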

[2] = system: EfPiwi piRISC loaded with piRNA #1 (26 nt); test: pre-steady-state target cleavage rate (min^-1); guide: piRNA #1 5'p-UGAGGUAGUAGGUUGUAUAGUAUCCA; MIWI and MILI are mouse PIWI proteins and EfPiwi is from a freshwater sponge; tags in brackets are library labels; higher = faster piRNA-guided slicing of the target; settings: auxiliary factor: 500 nM Ephydatia muelleri Gtsf1
Summary of the method: as §1

Sequence | pre-steady-state target cleavage rate [1] | pre-steady-state target cleavage rate [2]
GGAGACCAUACUAUACAACCUACUAGCACA | 0.0527 ± 0.018 | 0.00447 ± 0.0023
GGAGACCUAACUAUAGAACCUAGUACCUCA | 0.00194 ± 0.0055 | 0.00112 ± 0.0059
GGAGACCAUACUAUACAACCUACAACCUGA | 0.0179 ± 0.0095 | 0.00439 ± 0.0042
GGAGACCUUACUAUACAACGUACUUCCUCA | 0.0242 ± 0.0053 | 0.00315 ± 0.0021
GGAGACCAUACUAUACAACCUACGUACCUCA | 0.11 ± 0.018 | 0.00254 ± 0.0023
GGAGACCUAUGAUAUGUGCCUACUACCUCA | < 0.0001 | 0.000575 ± 0.0083
GGAGACCUUACUAUACAACCUUCUACCUGA | 0.00235 ± 0.0035 | 0.00341 ± 0.0028
GGAGACCUAUCUAUACUUCCUACUACCUCA | 0.054 ± 0.013 | 0.00374 ± 0.0038
GGAGUGGAUAGAAUACAACCUACUACCUCA | 0.156 ± 0.014 | 0.0062 ± 0.0044
GGAGACGAUACUAUACAAGGAACUACCUCA | 0.00281 ± 0.0034 | 0.00118 ± 0.0063
GGAGACGAUACUAUAGAACCUACAACCUCA | 0.0115 ± 0.0039 | 0.00192 ± 0.0022
GGAGACCUAUGAUAUGUUGCUAGUAGCUCA | 0.000262 ± 0.014 | 0.000257 ± 0.015
GGAGACCUAACUAUACAACCUACUACCAUCA | 0.261 ± 0.038 | 0.00258 ± 0.0034
GGAGACCUUACUAUACAACCUACUACCAUCA | 0.162 ± 0.024 | 0.00369 ± 0.0024
GGAGACCAUACUAUACAACCUACUACCUUA | 0.22 ± 0.024 | 0.0127 ± 0.0048
GGAGACCAUACUAUACAUCCUACUACCUCA | 0.302 ± 0.025 | 0.00918 ± 0.0027
GGAGUGGAUUCUAUACAUCCUACUACCUCA | 0.299 ± 0.013 | 0.00479 ± 0.0026
GGAGACGAUACUAUACAACCUAGCUACCUCA | 0.0598 ± 0.0083 | 0.00543 ± 0.0023
GGAGUGGAUACAUACAACCUACUACCUCA | 0.131 ± 0.011 | 0.131 ± 0.048
GGAGAGGAUACAAUACAACGUACUACCUCA | 0.0139 ± 0.003 | 0.00326 ± 0.002
GGAGAGCAUACUAUACAUCCUACUACCUCA | 0.335 ± 0.02 | 0.00491 ± 0.0024
GGAGUGGAUACUAUACAUCCUACUACCUCA | 0.267 ± 0.014 | 0.124 ± 0.044
GGAGACCUAUGAUAACUACCUAGUACCUCA | 0.000174 ± 0.018 | 0.000253 ± 0.0078
GGAGACCUAUCUAUACAACCAACUACCACA | 0.00574 ± 0.0023 | 0.00141 ± 0.0059
GGAGACCUAUCUAUACAACCUUGUACCUCA | 0.00134 ± 0.0058 | 0.000745 ± 0.0058
GGAGUGGUUACUAUACUACCUACUACCUCA | 0.183 ± 0.01 | 0.00596 ± 0.0023
GGAGACCUAACUAUACAACCAACUAGCUCA | 0.00115 ± 0.011 | 0.00159 ± 0.0055

Record cards, from the list above. Order of values: pre-steady-state target cleavage rate [1]	pre-steady-state target cleavage rate [2]
GGAGACGAUACUAUAGAACCUACAACCUCA as listed: 0.0115 ± 0.0039	0.00192 ± 0.0022
GGAGAGCAUACUAUACAUCCUACUACCUCA as listed: 0.335 ± 0.02	0.00491 ± 0.0024

Next results follow.

Sequence | pre-steady-state target cleavage rate [1] | pre-steady-state target cleavage rate [2]
GGAGACCAUACUAUACAACCAAGUACCUCA | 0.00242 ± 0.0031 | 0.00273 ± 0.0056
GGAGACCUAUCUAUUCAACGUACUACCUCA | 0.00945 ± 0.003 | 0.00247 ± 0.005
GGAGACCUAUGUAUACAACCUACUCCCUCA | 0.0316 ± 0.0063 | 0.0021 ± 0.0042
GGAGACCUUACUAUACAACCUACUUGCUCA | 0.098 ± 0.021 | 0.00263 ± 0.0043
GGAGACCUAUGAAUACAACGAACUACCUCA | 0.00208 ± 0.0032 | 0.000167 ± 0.031
GGAGACGAUACUAUACAACCUUGUACCUCA | 0.00274 ± 0.0031 | 0.00308 ± 0.002
GGAGACGAUACUAUACAACCUACAACCUCA | 0.142 ± 0.019 | 0.00407 ± 0.0013
GGAGACCUAUGAUUACAACCUACAACGUCA | 0.000689 ± 0.0076 | 0.000192 ± 0.01
GGAGUGCAUACUAUUCAACCUACUACCUCA | 0.182 ± 0.011 | 0.00471 ± 0.0042
GGAGACGAUACAAUACAACCUACUAGCUCA | 0.137 ± 0.023 | 0.00109 ± 0.0026
GGAGACCUAUGAUAAGAAGCUACUACCUCA | 0.000163 ± 0.025 | 0.000521 ± 0.0073
GGAGAGUGAUACUAUACAACCUACUACCUCA | 0.227 ± 0.016 | 0.171 ± 0.053
GGAGACCUAACUAAACAACCUACUACGUCA | 0.0404 ± 0.019 | 0.001 ± 0.0085
GGAGACCUAUGUUUACAACCUACUUCCUCA | 0.0114 ± 0.0056 | 0.000483 ± 0.0071
GGAGACCUAACUAUAGAACCUACUUCCUCA | 0.00368 ± 0.005 | 0.000559 ± 0.0074
GGAGUGGAUACUAUACAACCCACUACCUCA | 0.0174 ± 0.0024 | 0.00487 ± 0.0019
GGAGACCUAUGAUUACAACCUCCUACCUCA | 0.00296 ± 0.003 | 0.00165 ± 0.0055
GGAGACCAUACUAAACAAGCUACUACCUCA | 0.236 ± 0.018 | 0.000515 ± 0.006
GGAGACCUAACUAUACAUCCUACUACCUCA | 0.239 ± 0.028 | 0.00745 ± 0.0028
GGAGACCAUACAAUACAACCUACUACGUCA | 0.0912 ± 0.014 | 0.00359 ± 0.004
GGAGACCAUACUAUACAAGCUACUUCCUCA | 0.193 ± 0.016 | 0.00551 ± 0.0027
GGAGUGGAUACUAUACAACCUACUACCUCCA | 0.223 ± 0.011 | 0.274 ± 0.077
GGAGACCAUACUAUACAACCUAGAACCUCA | 0.00259 ± 0.0028 | 0.00223 ± 0.004
GGAGACCAUACUUUACAUCCUACUACCUCA | 0.296 ± 0.029 | 0.00254 ± 0.0036
GGAGACCUUACUAUACAACCUACUACCUUA | 0.174 ± 0.019 | 0.0898 ± 0.034
GGAGUGGAUACUAUACAACCUAGAUGGAGA [g9:g26:cont:t1A] | 0.000285 ± 0.0085 | 0.0017 ± 0.0039
GGAGUGCAUACUAUACAACCUACUUCCUCA | 0.00653 ± 0.0022 | 0.00155 ± 0.0024
